This note sets out measurements from the supplement of paper PMC10849652.

The chains behind the UniProt entries cited, without tags or fusion partners. Where a name states a change or a piece, a line headed by the entry shows the natural chain unless it says otherwise.
UniProt O75312: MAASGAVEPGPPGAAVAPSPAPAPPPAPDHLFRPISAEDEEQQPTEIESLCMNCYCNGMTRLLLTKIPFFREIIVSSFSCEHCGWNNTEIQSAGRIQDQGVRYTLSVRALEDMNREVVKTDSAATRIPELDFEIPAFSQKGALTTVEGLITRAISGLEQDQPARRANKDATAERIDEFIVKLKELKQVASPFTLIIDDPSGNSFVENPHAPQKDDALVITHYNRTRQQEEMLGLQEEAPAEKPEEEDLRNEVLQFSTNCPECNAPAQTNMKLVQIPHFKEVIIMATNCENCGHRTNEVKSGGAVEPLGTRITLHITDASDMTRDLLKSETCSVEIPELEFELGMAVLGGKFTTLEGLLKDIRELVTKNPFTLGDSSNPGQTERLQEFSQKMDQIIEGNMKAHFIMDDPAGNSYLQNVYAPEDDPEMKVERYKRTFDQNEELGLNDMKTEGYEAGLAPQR
UniProt O95218: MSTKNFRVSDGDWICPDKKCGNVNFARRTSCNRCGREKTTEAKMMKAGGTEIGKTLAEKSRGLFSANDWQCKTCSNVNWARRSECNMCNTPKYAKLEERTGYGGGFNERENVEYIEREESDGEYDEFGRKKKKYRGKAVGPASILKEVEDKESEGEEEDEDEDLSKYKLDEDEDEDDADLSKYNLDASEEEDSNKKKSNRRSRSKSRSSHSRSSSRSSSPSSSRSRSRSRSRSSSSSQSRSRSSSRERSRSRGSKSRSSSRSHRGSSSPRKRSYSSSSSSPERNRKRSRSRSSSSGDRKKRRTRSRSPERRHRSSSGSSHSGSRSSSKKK

This is one part of the list.

The first test deals with ZPR1 (UniProt O75312). Kind of test: log2 fold change, soluble protein after heating vs DMSO (PISA); higher = thermal stabilisation; K562 cells, 10 uM, 30 min; active = over 0.2 and 3.5 SD of the protein, either way, in both replicates (recomputed). The gist of the method: (§1)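 K562 cells (2×10^6 cells/mL) were treated with 10 μM compound for 30 min, and aliquots were heated for 3 min over 48°C-58°C. Pooled aliquots were extracted in PBS with 0.5% NP-40 at 4°C, and the supernatant after 21,000xg for 90 min was measured by TMTpro 16plex LC-MS/MS with channel sums equalised. Reported thermal stability, relative to control samples and from duplicates, is a log2 fold change.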
With `Fc1ccc(Cl)cc1-c1nc(Nc2ccncc2)c2nccnc2n1`, the log2 fold change is inactive: 0.024.
As to `CN1CCc2c(c3ccccc3n2Cc2ccc(C(=O)NO)cc2)C1` [Tubastatin A], the log2 fold change is inactive: -0.007.
In the case of `CC1=C(C(=O)Nc2cc3cn[nH]c3cc2F)C(c2ccc(C(F)(F)F)cc2)CC(=O)N1` (centres undefined), the log2 fold change is inactive: -0.013.
The same measure, in the same setting: in the case of `Cc1nc(Nc2n[nH]c3c2CN(C(=O)N[C@H](CN(C)C)c2ccccc2)C3(C)C)c2sccc2n1` it was inactive: -0.027; in that of `CNC(=O)c1ccccc1Nc1nc(Nc2ccc(N3CCOCC3)cc2OC)ncc1Cl`, inactive: 0.021; in that of `CCCCN(Cc1ccc(C(=O)NO)cc1)C(=O)Nc1ccccc1` [Nexturastat A], inactive: -0.007.
The same measure, in the same setting: in the case of `Cc1nc(Nc2ncc(C(=O)Nc3c(C)cccc3Cl)s2)cc(N2CCN(CCO)CC2)n1` [dasatinib] it was inactive: -0.004.
With `Cc1ccc2c(=O)c3ccccc3n(CCCN)c2c1C`, the log2 fold change is inactive: 0.016.
On the same count and under the same terms, in the case of `CN1CCN(CCOc2cc(OC3CCOCC3)c3c(Nc4c(Cl)ccc5c4OCO5)ncnc3c2)CC1` [saracatinib] it was inactive: 0.021; in that of `C[C@@H]1COCCN1c1cc(C2(S(C)(=O)=O)CC2)nc(-c2cccc3[nH]ccc23)n1`, inactive: -0.002.
On the same count and under the same terms, for `Cc1cn(-c2cc(NC(=O)c3ccc(C)c(Nc4nccc(-c5cccnc5)n4)c3)cc(C(F)(F)F)c2)cn1` [nilotinib] the value was inactive: -0.031.
Still for that read-out and setting: for `CNc1nc(-c2ccc3c(N)n[nH]c3c2)cc(N2C[C@@H](C(=O)NC3CCCCC3)CC[C@H]2C)n1` the value was inactive: -0.038; for `Cc1ncc(-c2ccnc(Nc3ccc(S(C)(=O)=O)cc3)n2)n1C(C)C`, inactive: 0.009.
With `CO[C@H]1C[C@@H]2CC[C@@H](C)[C@@](O)(O2)C(=O)C(=O)N2CCCC[C@H]2C(=O)O[C@H]([C@H](C)C[C@@H]2CC[C@H](n3cnnn3)[C@H](OC)C2)CC(=O)[C@H](C)/C=C(\C)[C@@H](O)[C@@H](OC)C(=O)[C@H](C)C[C@H](C)/C=C/C=C/C=C/1C` [zotarolimus], the log2 fold change is inactive: 0.033.
On the same count and under the same terms, in the case of `Cn1c2cc(S(C)=O)sc2c2cnn(Cc3cccc(N)c3)c(=O)c21` (centres undefined) it was inactive: -0.044.
The same measure, in the same setting: in the case of `COc1cc2ncnc(Nc3ccc(F)c(Cl)c3)c2cc1OCCCN1CCOCC1` [gefitinib] it was inactive: 0.005; in that of `CC(C)c1cnn2c(NCc3ccccc3)cc(NCCCCCCN)nc12`, inactive: 0.03.
Still for that read-out and setting: for `NC(=O)c1ccc2nc(-c3ccc(Oc4ccc(Cl)cc4)cc3)[nH]c2c1` the value was inactive: -0.026.

For the next test, the target named is ZRANB2 (UniProt O95218). The description is as above. The gist of the method: as §1
For the compound `Cc1cc(SCc2sc(-c3ccc(C(F)(F)F)cc3)nc2C)ccc1OCC(=O)O`, the log2 fold change is inactive: -0.086.
Same read-out and setting: for `O=C1NC(=O)C(c2cnc3ccccn23)=C1c1cn2c3c(cc(F)cc13)CN(C(=O)N1CCCCC1)CC2` the value was inactive: 0.12; for `CC[C@H](C)n1cc(C)c2c(C(=O)NCc3c(C)cc(C)[nH]c3=O)cc(-c3ccc(N4CCNCC4)nc3)cc21`, inactive: 0.
Same read-out and setting: for `Cn1cc(-c2ccc3c(c2)CCN3C(=O)Cc2cccc(C(F)(F)F)c2)c2c(N)ncnc21` the value was inactive: -0.013; for `CC(C)(O)CC(=O)NCCn1ccc2ncnc(Nc3ccc(Oc4cccc(C(F)(F)F)c4)c(Cl)c3)c21`, inactive: -0.012.
Turning to `O=C(Nc1cccc(Nc2ncc(Br)c(NCCc3cnc[nH]3)n2)c1)N1CCCC1`, the log2 fold change is inactive: -0.007.
Same read-out and setting: for `C[C@@H](N)c1ccc(C(=O)Nc2ccnc3[nH]ccc23)cc1` the value was inactive: -0.043; for `NC1(Cc2ccc(Cl)cc2)CCN(c2ncnc3[nH]ccc23)CC1`, inactive: 0.014; for `CC[C@H](C)[C@H](NC(=O)[C@H]([C@@H](C)CC)N(C)C(C)=O)C(=O)N[C@H](C(=O)N[C@@H](CC(C)C)C(=O)[C@@]1(C)CO1)[C@@H](C)O` [epoxomicin], inactive: -0.016.
On the same count and under the same terms, for `Fc1ccc(Cl)cc1-c1nc(Nc2ccncc2)c2nccnc2n1` the value was inactive: 0.041; for `CN1CCc2c(c3ccccc3n2Cc2ccc(C(=O)NO)cc2)C1` [Tubastatin A], inactive: -0.032; for `Cc1nc(Nc2n[nH]c3c2CN(C(=O)N[C@H](CN(C)C)c2ccccc2)C3(C)C)c2sccc2n1`, inactive: -0.032.
On the same count and under the same terms, for `CNC(=O)c1ccccc1Nc1nc(Nc2ccc(N3CCOCC3)cc2OC)ncc1Cl` the value was inactive: 0.002; for `CCCCN(Cc1ccc(C(=O)NO)cc1)C(=O)Nc1ccccc1` [Nexturastat A], inactive: -0.057; for `Cc1nc(Nc2ncc(C(=O)Nc3c(C)cccc3Cl)s2)cc(N2CCN(CCO)CC2)n1` [dasatinib], inactive: 0.078.
With `Cc1ccc2c(=O)c3ccccc3n(CCCN)c2c1C`, the log2 fold change was active: -0.399.
The same measure, in the same setting: in the case of `CN1CCN(CCOc2cc(OC3CCOCC3)c3c(Nc4c(Cl)ccc5c4OCO5)ncnc3c2)CC1` [saracatinib] it was inactive: 0.044; in that of `C[C@@H]1COCCN1c1cc(C2(S(C)(=O)=O)CC2)nc(-c2cccc3[nH]ccc23)n1`, inactive: 0.001.
With `Cc1cn(-c2cc(NC(=O)c3ccc(C)c(Nc4nccc(-c5cccnc5)n4)c3)cc(C(F)(F)F)c2)cn1` [nilotinib], the log2 fold change is inactive: 0.052.
Consider `CNc1nc(-c2ccc3c(N)n[nH]c3c2)cc(N2C[C@@H](C(=O)NC3CCCCC3)CC[C@H]2C)n1`, for which the log2 fold change was inactive: -0.066.
Turning to `Cc1ncc(-c2ccnc(Nc3ccc(S(C)(=O)=O)cc3)n2)n1C(C)C`, the log2 fold change was inactive: -0.027.
Still for that read-out and setting: in the case of `CO[C@H]1C[C@@H]2CC[C@@H](C)[C@@](O)(O2)C(=O)C(=O)N2CCCC[C@H]2C(=O)O[C@H]([C@H](C)C[C@@H]2CC[C@H](n3cnnn3)[C@H](OC)C2)CC(=O)[C@H](C)/C=C(\C)[C@@H](O)[C@@H](OC)C(=O)[C@H](C)C[C@H](C)/C=C/C=C/C=C/1C` [zotarolimus] it was inactive: -0.011; in that of `Cn1c2cc(S(C)=O)sc2c2cnn(Cc3cccc(N)c3)c(=O)c21` (centres undefined), inactive: -0.006.
The same measure, in the same setting: for `COc1cc2ncnc(Nc3ccc(F)c(Cl)c3)c2cc1OCCCN1CCOCC1` [gefitinib] the value was inactive: 0.034; for `CC(C)c1cnn2c(NCc3ccccc3)cc(NCCCCCCN)nc12`, inactive: 0.014.
`NC(=O)c1ccc2nc(-c3ccc(Oc4ccc(Cl)cc4)cc3)[nH]c2c1`: the log2 fold change was inactive: -0.015.
